Test results reported in publication PMC5080790.
No constants are given. Whether binding was seen depends on the method and setting. Binding seen in cells or lysates may run through a third protein. Where a sequence is shown, tags or fusion partners need not be part of it.

Sequences of proteins named here, by UniProt entry; tags and fusion partners are left off. A change or cut given only in a name is not applied to a line headed by its entry.
UniProt Q9Y466: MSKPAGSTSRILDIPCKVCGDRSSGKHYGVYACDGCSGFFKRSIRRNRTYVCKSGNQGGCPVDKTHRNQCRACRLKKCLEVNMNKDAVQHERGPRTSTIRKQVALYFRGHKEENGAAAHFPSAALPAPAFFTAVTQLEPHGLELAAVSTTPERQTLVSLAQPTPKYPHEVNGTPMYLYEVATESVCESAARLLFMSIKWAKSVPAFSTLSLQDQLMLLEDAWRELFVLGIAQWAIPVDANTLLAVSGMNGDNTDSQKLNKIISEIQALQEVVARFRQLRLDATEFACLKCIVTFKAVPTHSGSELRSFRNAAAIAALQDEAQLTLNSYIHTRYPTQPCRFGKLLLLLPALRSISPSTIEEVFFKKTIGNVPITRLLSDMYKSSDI

Target: GST-NR2E1 (human) (UniProt Q9Y466)
Assay: pull-down; GST or GST fusion from E. coli lysate held on glutathione MagBeads, washed, blocked with 1 % BSA/PBS; HEK293 lysate (0.1 % BSA) with the overexpressed protein for two hours at 4 °C; western blot (anti-FLAG, anti-EGFP, anti-myc); only the target purified

binding: no binding
B1: myc-tagged PRGC1 (Myc-PRGC1) (protein, UniProt O70343 1-797)
chain: MAWDMCSQDSVWSDIECAALVGEDQPLCPDLPELDLSELDVNDLDTDSFLGGLKWCSDQSEIISNQYNNEPANIFEKIDEENEANLLAVLTETLDSLPVDEDGLPSFDALTDGAVTTDNEASPSSMPDGTPPPQEAEEPSLLKKLLLAPANTQLSYNECSGLSTQNHAANHTHRIRTNPAIVKTENSWSNKAKSICQQQKPQRRPCSELLKYLTTNDDPPHTKPTENRNSSRDKCASKKKSHTQPQSQHAQAKPTTLSLPLTPESPNDPKGSPFENKTIERTLSVELSGTAGLTPPTTPPHKANQDNPFKASPKLKPSCKTVVPPPTKRARYSECSGTQGSHSTKKGPEQSELYAQLSKSSGLSRGHEERKTKRPSLRLFGDHDYCQSLNSKTDILINISQELQDSRQLDFKDASCDWQGHICSSTDSGQCYLRETLEASKQVSPCSTRKQLQDQEIRAELNKHFGHPCQAVFDDKSDKTSELRDGDFSNEQFSKLPVFINSGLAMDGLFDDSEDESDKLSYPWDGTQPYSLFDVSPSCSSFNSPCRDSVSPPKSLFSQRPQRMRSRSRSFSRHRSCSRSPYSRSRSRSPGSRSSSRSCYYYESSHYRHRTHRNSPLYVRSRSRSPYSRRPRYDSYEAYEHERLKRDEYRKEHEKRESERAKQRERQKQKAIEERRVIYVGKIRPDTTRTELRDRFEVFGEIEECTVNLRDDGDSYGFITYRYTCDAFAALENGYTLRRSNETDFELYFCGRKQFFKSNYADLDTNSDDFDPASTKSKYDSLDFDSLLKEAQRSLRR
